Data: publication PMC6976523
These are yes or no findings as the source states them, for the method shown. In cells and extracts the contact can be indirect. Some results given as binding are weak or reduced against the parent protein; the word gives no strength. For part of these data: Tags and fused reporters may be left off the sequences shown.

Amino acid sequences for entries named in this document (tags omitted).
UniProt P78527: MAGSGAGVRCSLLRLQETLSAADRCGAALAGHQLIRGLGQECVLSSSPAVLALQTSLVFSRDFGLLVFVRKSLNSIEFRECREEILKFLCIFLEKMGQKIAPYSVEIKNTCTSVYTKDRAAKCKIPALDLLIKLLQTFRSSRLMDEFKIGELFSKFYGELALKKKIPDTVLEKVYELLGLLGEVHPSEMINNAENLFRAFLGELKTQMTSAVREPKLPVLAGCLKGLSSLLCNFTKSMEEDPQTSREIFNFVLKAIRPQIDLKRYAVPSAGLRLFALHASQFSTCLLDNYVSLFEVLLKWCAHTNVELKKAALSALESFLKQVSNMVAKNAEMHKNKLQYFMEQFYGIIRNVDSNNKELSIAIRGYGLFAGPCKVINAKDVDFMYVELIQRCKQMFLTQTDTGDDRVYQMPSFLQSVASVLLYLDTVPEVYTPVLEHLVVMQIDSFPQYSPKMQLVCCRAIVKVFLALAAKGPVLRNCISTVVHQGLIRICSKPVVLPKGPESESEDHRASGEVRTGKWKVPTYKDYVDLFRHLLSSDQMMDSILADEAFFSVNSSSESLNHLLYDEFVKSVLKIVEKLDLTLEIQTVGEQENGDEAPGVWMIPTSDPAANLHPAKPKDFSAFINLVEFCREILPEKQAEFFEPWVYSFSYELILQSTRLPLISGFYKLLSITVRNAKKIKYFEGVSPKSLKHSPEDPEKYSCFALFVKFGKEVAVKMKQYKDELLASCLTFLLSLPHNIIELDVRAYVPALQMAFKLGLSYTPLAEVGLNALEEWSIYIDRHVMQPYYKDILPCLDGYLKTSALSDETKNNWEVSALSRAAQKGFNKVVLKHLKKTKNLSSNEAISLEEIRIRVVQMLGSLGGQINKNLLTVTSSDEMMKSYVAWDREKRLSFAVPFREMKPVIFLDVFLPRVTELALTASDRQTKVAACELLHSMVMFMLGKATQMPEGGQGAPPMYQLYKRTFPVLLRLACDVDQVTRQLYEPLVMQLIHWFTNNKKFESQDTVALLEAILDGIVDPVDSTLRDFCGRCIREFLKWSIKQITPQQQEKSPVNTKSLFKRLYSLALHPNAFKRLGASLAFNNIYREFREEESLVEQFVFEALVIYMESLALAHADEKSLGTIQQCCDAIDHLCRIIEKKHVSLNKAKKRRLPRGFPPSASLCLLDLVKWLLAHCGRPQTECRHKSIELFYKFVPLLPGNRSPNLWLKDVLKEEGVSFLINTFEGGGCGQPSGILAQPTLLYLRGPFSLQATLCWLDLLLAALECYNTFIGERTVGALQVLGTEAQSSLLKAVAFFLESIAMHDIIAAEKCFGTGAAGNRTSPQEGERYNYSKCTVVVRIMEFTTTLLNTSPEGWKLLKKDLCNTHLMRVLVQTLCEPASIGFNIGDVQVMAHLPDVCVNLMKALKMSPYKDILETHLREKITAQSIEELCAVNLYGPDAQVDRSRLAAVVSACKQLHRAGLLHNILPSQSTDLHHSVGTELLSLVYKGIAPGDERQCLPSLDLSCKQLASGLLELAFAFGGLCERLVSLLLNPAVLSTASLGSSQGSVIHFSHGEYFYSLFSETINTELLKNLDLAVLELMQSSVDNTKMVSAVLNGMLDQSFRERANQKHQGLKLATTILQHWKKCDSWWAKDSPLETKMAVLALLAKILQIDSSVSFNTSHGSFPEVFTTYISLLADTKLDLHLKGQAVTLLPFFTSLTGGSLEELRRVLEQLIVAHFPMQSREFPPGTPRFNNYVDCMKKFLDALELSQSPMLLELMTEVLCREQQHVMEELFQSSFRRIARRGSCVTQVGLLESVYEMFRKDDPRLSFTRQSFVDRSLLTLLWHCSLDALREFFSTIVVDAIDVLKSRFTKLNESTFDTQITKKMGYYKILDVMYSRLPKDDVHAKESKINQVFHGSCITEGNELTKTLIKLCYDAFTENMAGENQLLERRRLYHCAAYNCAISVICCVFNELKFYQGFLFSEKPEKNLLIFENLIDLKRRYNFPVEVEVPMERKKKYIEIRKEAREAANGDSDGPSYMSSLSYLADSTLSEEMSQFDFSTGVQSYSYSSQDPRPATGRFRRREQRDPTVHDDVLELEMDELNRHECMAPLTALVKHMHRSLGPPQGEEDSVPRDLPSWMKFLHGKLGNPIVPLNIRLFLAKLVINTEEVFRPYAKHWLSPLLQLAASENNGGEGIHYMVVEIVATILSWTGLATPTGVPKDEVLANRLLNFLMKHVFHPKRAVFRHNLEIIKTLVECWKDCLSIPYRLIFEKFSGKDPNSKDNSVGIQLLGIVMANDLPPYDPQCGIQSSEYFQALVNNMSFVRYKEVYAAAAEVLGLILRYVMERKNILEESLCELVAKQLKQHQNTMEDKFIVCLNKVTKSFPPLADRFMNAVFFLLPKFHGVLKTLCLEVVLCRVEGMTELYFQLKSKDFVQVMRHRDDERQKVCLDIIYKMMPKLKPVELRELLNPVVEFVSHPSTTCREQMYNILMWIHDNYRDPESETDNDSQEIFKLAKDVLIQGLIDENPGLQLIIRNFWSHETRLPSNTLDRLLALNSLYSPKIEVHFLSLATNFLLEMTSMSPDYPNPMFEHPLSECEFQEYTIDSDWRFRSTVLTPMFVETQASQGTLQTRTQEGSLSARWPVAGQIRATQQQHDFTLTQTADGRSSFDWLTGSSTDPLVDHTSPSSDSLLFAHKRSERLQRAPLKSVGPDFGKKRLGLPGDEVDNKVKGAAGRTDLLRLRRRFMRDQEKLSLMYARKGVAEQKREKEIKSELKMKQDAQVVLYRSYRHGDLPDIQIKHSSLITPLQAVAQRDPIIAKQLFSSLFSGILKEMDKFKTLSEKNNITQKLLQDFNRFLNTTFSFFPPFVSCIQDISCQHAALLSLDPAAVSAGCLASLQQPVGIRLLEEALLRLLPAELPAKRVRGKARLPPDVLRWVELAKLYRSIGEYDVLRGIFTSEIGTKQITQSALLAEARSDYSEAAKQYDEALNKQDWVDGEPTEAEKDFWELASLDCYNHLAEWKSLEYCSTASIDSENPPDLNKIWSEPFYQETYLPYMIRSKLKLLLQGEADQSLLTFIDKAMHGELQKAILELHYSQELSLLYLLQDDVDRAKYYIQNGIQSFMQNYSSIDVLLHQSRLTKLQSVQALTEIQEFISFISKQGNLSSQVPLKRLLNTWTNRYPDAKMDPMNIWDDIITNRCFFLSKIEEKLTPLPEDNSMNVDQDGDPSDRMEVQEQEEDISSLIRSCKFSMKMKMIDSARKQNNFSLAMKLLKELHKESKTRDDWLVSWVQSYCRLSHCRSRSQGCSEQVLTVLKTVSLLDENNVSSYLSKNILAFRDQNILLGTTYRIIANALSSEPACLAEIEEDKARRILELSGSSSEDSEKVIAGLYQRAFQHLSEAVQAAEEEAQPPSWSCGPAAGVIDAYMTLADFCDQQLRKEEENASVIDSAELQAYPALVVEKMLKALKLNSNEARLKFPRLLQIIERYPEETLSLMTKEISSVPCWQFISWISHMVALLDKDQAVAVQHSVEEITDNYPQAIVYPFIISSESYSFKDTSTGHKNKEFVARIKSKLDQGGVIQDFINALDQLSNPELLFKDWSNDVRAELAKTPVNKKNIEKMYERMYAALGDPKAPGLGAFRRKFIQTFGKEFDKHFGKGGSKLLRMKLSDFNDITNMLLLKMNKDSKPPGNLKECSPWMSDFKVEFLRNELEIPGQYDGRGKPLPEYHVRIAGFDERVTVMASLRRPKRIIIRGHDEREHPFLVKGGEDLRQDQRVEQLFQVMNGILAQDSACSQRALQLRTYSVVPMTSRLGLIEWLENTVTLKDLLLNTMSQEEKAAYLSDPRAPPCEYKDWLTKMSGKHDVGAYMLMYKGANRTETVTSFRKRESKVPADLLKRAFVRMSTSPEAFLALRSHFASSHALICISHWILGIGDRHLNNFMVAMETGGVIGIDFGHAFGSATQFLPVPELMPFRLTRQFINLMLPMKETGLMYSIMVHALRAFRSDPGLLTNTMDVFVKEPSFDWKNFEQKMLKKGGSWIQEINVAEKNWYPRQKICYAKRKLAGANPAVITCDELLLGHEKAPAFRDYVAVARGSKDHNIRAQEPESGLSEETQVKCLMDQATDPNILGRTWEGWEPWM
UniProt Q13426: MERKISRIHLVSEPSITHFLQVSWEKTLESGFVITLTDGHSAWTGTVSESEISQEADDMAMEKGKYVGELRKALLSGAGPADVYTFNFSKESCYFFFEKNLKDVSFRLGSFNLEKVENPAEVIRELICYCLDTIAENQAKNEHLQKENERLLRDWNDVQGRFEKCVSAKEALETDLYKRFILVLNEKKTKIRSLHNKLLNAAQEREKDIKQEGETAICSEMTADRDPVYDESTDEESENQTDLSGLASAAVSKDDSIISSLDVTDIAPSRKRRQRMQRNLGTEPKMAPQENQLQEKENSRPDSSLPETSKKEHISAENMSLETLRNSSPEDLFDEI

Key:
FLAG-tagged ZNF281 1-174 = FLAG-tagged ZNF281 1-174 (UniProt Q9Y2X9); test: co-IP; full-length and mutant FLAG-tagged ZNF281 constructs transfected into HEK293T cells and used as bait; endogenous partners detected
[1] = molecular target: FLAG-tagged full-length ZNF281 (ZNF281 1-895) (UniProt Q9Y2X9); test: as above
[2] = molecular target: FLAG-tagged full-length ZNF281 (ZNF281 1-895) (UniProt Q9Y2X9); test: co-IP; immunoprecipitation of FLAG-tagged proteins from HEK293T or HEK293 cells; endogenous partners detected; wash steps with increasing salt, 150 to 600 mM NaCl
[3] = molecular target: ZNF281, endogenous (human (endogenous in HEK293)) (UniProt Q9Y2X9); test: co-IP; at the endogenous level and in different cell lines (Supplementary Fig. S2a, b); bait and cell lines not given
FLAG-tagged ZNF281 1-379 = FLAG-tagged ZNF281 1-379 (UniProt Q9Y2X9); test: co-IP; full-length and mutant FLAG-tagged ZNF281 constructs transfected into HEK293T cells and used as bait; endogenous partners detected

With “DNA-PKcs (catalytic subunit of the DNA-PK subcomplex), endogenous (from UniProt P78527 1-4128)” the binding (FLAG-tagged ZNF281 1-174) was “binds”, the binding [1] was “binds” and the binding [2] was “binds”. The binding [3] was “binds”.

With “XRCC4 (X-Ray Repair Cross Complementing 4), endogenous (from UniProt Q13426 1-336)” the binding (FLAG-tagged ZNF281 1-174) was “no binding”, the binding [1] was “binds” and the binding (FLAG-tagged ZNF281 1-379) was “binds”. For the same substance, the binding [2] was “binds” and the binding [3] was “binds”.
